Where a name gives a salt, the structure may show the parent alone.
Legend:
APPswe transgenic mice [1] = experiment: Morris water maze test, APPswe transgenic mice; format: in vivo; settings: intragastric once a day 30 days, compositions 15.83 g raw medicinal materials/kg, donepezil 1.67 mg/kg
APPswe transgenic mice [2] = experiment: Object recognition test, APPswe transgenic mice; format: in vivo; settings: intragastric once a day 30 days, compositions 15.83 g raw medicinal materials/kg, donepezil 1.67 mg/kg, model control 0.105

COc1cc2c(cc1OC)C(=O)C(CC1CCN(Cc3ccccc3)CC1)C2 (stereo not drawn) [Positive control, Donepezil Hydrochloride]
Escape latency (APPswe transgenic mice [1]; model control 86.14): 68.23 s | Distance (cm) (APPswe transgenic mice [1]; model control 982.81): 783.50 cm | Resolution index (APPswe transgenic mice [2]): 0.176

— US11278584B2, “Pharmaceutical composition for preventing and treating senile dementia and preparation method thereof” (priority 2014, dated 2022)
